Results on 42 sequences are retold here after paper PMC7819943, “Rice protein-binding microarrays: a tool to detect cis-acting elements near promoter regions in rice”.

Chains of the proteins cited; added tags and fusions are not shown.
UniProt Q0JBA9, entry or part of it: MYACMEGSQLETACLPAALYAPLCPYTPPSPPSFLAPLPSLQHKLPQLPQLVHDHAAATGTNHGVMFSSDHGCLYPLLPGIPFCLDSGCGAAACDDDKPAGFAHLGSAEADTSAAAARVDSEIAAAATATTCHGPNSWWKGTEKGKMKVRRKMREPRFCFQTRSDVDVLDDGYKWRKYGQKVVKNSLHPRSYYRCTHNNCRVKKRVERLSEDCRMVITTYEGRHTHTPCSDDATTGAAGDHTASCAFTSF

This is one part of the list.

In the experiment the target is OsWRKY34 (Oryza sativa, UniProt Q0JBA9 1-250). Put plainly: protein-binding microarray (RPBM); PBS, 2% BSA, 51.3 ng/ul salmon testes DNA, 50 uM zinc acetate, 200 nM TF, 25 C, 1 h; high values mean tight binding. The note with it: protein: recombinant; tags: N-terminal polyhistidine and DsRed monomer fusion (pET32a); label: CyDye5-dUTP incorporated in the synthesized complementary strand; 3' TTTTT single-stranded linker to array surface; dsDNA, one strand shown. In short, it runs like this: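 A custom Agilent array was converted to double-stranded form by primer extension with Cy5-dUTP and blocked with 2% BSA. Protein at 200 nM in PBS with 2% BSA, salmon testes DNA and 50 µM zinc acetate was applied for 1 h at 25 °C, followed by washing. The proteins were polyhistidine–DsRed N-terminal fusions of transcription factors, expressed in E. coli BL21-CodonPlus and Ni–NTA-purified. The binding signal is per-feature fluorescence intensity (arbitrary units) from an Axon 4000B scanner.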
Take “CATTCATTTTCGTGAAACTCTTTTAGCTCCTTGCAATTTTCGGAGTCACCTAGTGCAG”: the binding signal was 9370 fluorescence intensity (a.u.). The value for “ATCCTTTGACACATCATCAGCTGCCGCTTAAGCAATCGAGCGGAGTCACCTAGTGCAG” was 9100 fluorescence intensity (a.u.); that for “GGCAGCACAGAATTGTTTTCCCTTTCGATCGATCAAGATGCGGAGTCACCTAGTGCAG” was 8700 fluorescence intensity (a.u.); that for “GGGTTATTCTGGTAAAATCGCATCAACATAGCTTCTTATACGGAGTCACCTAGTGCAG” was 8490 fluorescence intensity (a.u.). Then “GTGGCAATGCAAACTCGTCTTGGAACCCACTGCTTTGCCTCGGAGTCACCTAGTGCAG”, with 8192 fluorescence intensity (a.u.); and “TGTTTTTCATGCCGCGCCATACTATTATGCTAGACACACGCGGAGTCACCTAGTGCAG”, with 8030 fluorescence intensity (a.u.).

For “GAATGGGGATGGGGAATTGAGGAATAAACTCCCTCCTTTTCGGAGTCACCTAGTGCAG”, the binding signal was 13100 fluorescence intensity (a.u.). Consider “GCATATTGTACTTTACTGTCACCTGGTATGTAATTCGCTCCGGAGTCACCTAGTGCAG”, for which the binding signal was 11900 fluorescence intensity (a.u.).

On to “CTTCTCGCATCCGTGTCTTCATCCTTGATCCTCCACTCTCCGGAGTCACCTAGTGCAG”, for which the binding signal was 9370 fluorescence intensity (a.u.). “GGTCGTGGCACGCTCAGGGGAGGGGCTCCCGGCGGGAATGCGGAGTCACCTAGTGCAG”: the binding signal was 8420 fluorescence intensity (a.u.). Take “TACCTCTATCCTCTAATATAAGGGATATTCACTATTTTCACGGAGTCACCTAGTGCAG”: the binding signal was 9080 fluorescence intensity (a.u.).

For the sequence “CTCACTTTCAGTCGGTTGGTCGGTTCTTGTGCTCATTGCCCGGAGTCACCTAGTGCAG”, the binding signal was 9180 fluorescence intensity (a.u.).

Regarding “GGTTGGGGTAGGAGTCGATGGATGGCCCACCTGTCAGGGACGGAGTCACCTAGTGCAG”, the binding signal is 8120 fluorescence intensity (a.u.). The value for “TTAATGTGCTTGTAGAAAGTGTCCAATTTTTAAAAATTGCCGGAGTCACCTAGTGCAG” was 8330 fluorescence intensity (a.u.); that for “TTTTGTTCTTGTTCGTTGAGTTTTTCACTTTGCTCTAATCCGGAGTCACCTAGTGCAG” was 8690 fluorescence intensity (a.u.); that for “GGGCGGCAGGGTCTATTTTTGTAAATTTTTTTTGCCGATACGGAGTCACCTAGTGCAG” was 12300 fluorescence intensity (a.u.).

Take “GCACCTTCCGCGAAGCTTCCTCTCCTGCCTGCGCGTTGACCGGAGTCACCTAGTGCAG”: the binding signal is 14600 fluorescence intensity (a.u.). The value for “GCGGGAGGGCGGGGCCCCGGTGTGCAGGTGCTGGCGGACGCGGAGTCACCTAGTGCAG” was 8140 fluorescence intensity (a.u.); that for “CGCTCACTCTCGCGCGCGCGCACACACTCGCATCGTCGCACGGAGTCACCTAGTGCAG” was 11900 fluorescence intensity (a.u.); that for “AACATTTGTTTCACTCGTTGGTCAACTACAACATTTGACCCGGAGTCACCTAGTGCAG” was 9450 fluorescence intensity (a.u.). On to “CTTTTGTATCGCACGCCACAACACCATGCATTTAATTGGTCGGAGTCACCTAGTGCAG”, for which the binding signal was 9880 fluorescence intensity (a.u.). With “AATATTTATCTGATCCCTTCTATACCATTAAAATTTTAACCGGAGTCACCTAGTGCAG”, the binding signal is 8360 fluorescence intensity (a.u.). Take “CGACACCAACTCATCCCTCTTCCCCAACCGCGGCCCACCTCGGAGTCACCTAGTGCAG”: the binding signal was 9980 fluorescence intensity (a.u.). For “GCCTATTTTTTCGTACGGAGTTGGCTTGTAGTAGTTGCATCGGAGTCACCTAGTGCAG”, the binding signal was 8950 fluorescence intensity (a.u.). In the case of “CTGAAAATTTTGTGCGCTCACACCATGTGCTACATTTGTCCGGAGTCACCTAGTGCAG”, the binding signal is 10700 fluorescence intensity (a.u.).

For the sequence “TCTTAGTTGTTTTTTTTACTTCTATTGTGTCTATTGGATTCGGAGTCACCTAGTGCAG”, the binding signal was 8310 fluorescence intensity (a.u.). For the sequence “CAGGTTCATGCATGCGTGATTTCTTGGTTTTGTTTCTCCGCGGAGTCACCTAGTGCAG”, the binding signal was 10400 fluorescence intensity (a.u.). Regarding “AGCACTACCCAGCCACACAACCATAAGTCGTCTCTCAGTGCGGAGTCACCTAGTGCAG”, the binding signal was 9040 fluorescence intensity (a.u.).

For “TGTTCACATATCGCTTCATGTATTTACCACTAGTTAAAAACGGAGTCACCTAGTGCAG”, the binding signal was 9420 fluorescence intensity (a.u.). For the sequence “GGCTTTGTTGTGTTGAGCCCTTTCCTGGGCCTATAAATTCCGGAGTCACCTAGTGCAG”, the binding signal was 10400 fluorescence intensity (a.u.). For the sequence “AATCCGCCATTAGCACGTGTGGGTTACTGTAGCATTTATACGGAGTCACCTAGTGCAG”, the binding signal was 8960 fluorescence intensity (a.u.). As for “GATTGAAAATCCGCATCCCTACATATTGCTTGCTGGTAATCGGAGTCACCTAGTGCAG”, the binding signal was 9700 fluorescence intensity (a.u.). “AGATGCTATTTTCTGTCGACAGGCTATACACGGTCCCAAACGGAGTCACCTAGTGCAG”: the binding signal was 8740 fluorescence intensity (a.u.). In the case of “GTTGTTGTCCTTCAATGTTCACTATGATGTTGCTCTTTTACGGAGTCACCTAGTGCAG”, the binding signal is 8330 fluorescence intensity (a.u.). The value for “GAATGGTTAAACATGTGAGAAAAAGTCAACGGCTATTAAACGGAGTCACCTAGTGCAG” was 10200 fluorescence intensity (a.u.). With “ATAGTGTCTGTTTGGTGAGCTTCCTGTAGATGCAACTCTCCGGAGTCACCTAGTGCAG”, the binding signal is 9150 fluorescence intensity (a.u.). As to “GGCCCAAGTCCACTAAACTGCCCAAGATTGCAGGCTCACACGGAGTCACCTAGTGCAG”, the binding signal is 8080 fluorescence intensity (a.u.). Then “TTGGTGGCCTTTTCTCCCTTTTTTGCATGTGCTTTGCTCTCGGAGTCACCTAGTGCAG”, with 14100 fluorescence intensity (a.u.); and “ACTGACACGTCCCATATATCATGCACCAACCGCCAACCCACGGAGTCACCTAGTGCAG”, with 8310 fluorescence intensity (a.u.). On to “CGAAACTGACATGTGGGCCCCACCTACTTTTTTTATTTATCGGAGTCACCTAGTGCAG”, for which the binding signal was 10200 fluorescence intensity (a.u.). The value for “ATCTCCCTTCTCTTCTGCTTCCGATCTGCAGCGCCTTCCGCGGAGTCACCTAGTGCAG” was 9300 fluorescence intensity (a.u.); that for “ACTCCCACCTATTTGTATAAGTTAACACATATATATTGACCGGAGTCACCTAGTGCAG” was 8580 fluorescence intensity (a.u.).
